According to PubChem BioAssay AID1487 (National Center for Advancing Translational Sciences (NCATS), 2009):
The other results are listed elsewhere or left out. Further columns of the screen follow, without active or inactive calls. Compounds called inactive in the main read-out are mostly missing here. The note in brackets gives the kind of curve behind each potency; many fits are weak.

Assay: qHTS Assay for Modulators of Lamin A Splicing
Settings: HeLa LMNA splicing GFP/RFP minigene ratio, 48 h
Summary of the method: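 Read-out is the ratio of GFP to DsRed2 object intensity, acquired by 488 nm laser-scanning cytometry on HeLa lamin A-EGFP minigene reporter cells. Compound incubation 48 hrs at 37 °C in Opti-MEM with 2% FBS; DMSO 0.5% final.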

[1] = measured here: RFP viability control channel
[2] = measured here: GFP splicing reporter channel

Row | SMILES | AC50 [1] | AC50 [2]
1 | CCN(CC)S(=O)(=O)c1cccc(NC(=O)C(=O)c2c(-c3ccccc3)cc3ccccn23)c1 | 31.6 µM [rising, single point] | –
2 | CCC(C)N(C(=O)COC(=O)CNC(=O)c1ccccc1F)C1CCS(=O)(=O)C1 (stereo not drawn) | 0.0447 µM [falling, full curve, poor fit] | –
3 | Cc1ccc(S(=O)(=O)Oc2cccc(/C=N/n3cnnc3)c2)cc1 | 14.1 µM [rising, partial curve] | 12.6 µM [rising, partial curve]
4 | CCOC(=O)C(NC(=O)NCc1ccccc1)(OCC)C(F)(F)F (stereo not drawn) | 35.5 µM [rising, single point] | –
5 | C=CCN(c1ccc(C(=O)Nc2ccc(C)c(C)c2)cc1)S(C)(=O)=O | 14.1 µM [rising, partial curve] | 12.6 µM [rising, partial curve, poor fit]
6 | Cc1cc2nnc(SCC(=O)NCC3CCCO3)n2c2ccccc12 (stereo not drawn) | 5.01 µM [rising, single point] | –
7 | O=C(CCCN1C(=O)c2ccccc2C1=O)N1CCOCC1 | 17.8 µM [rising, partial curve, poor fit] | –
8 | Cc1nonc1C1CCCN1C(=O)c1cc(COc2ccc(F)cc2F)on1 (stereo not drawn) | – | 5.62 µM [rising, partial curve, poor fit]
9 | COc1ccc(C2=NCC(CSc3nnc(-c4ccc5c(c4)OCO5)o3)S2)cc1 (stereo not drawn) | – | 5.62 µM [rising, partial curve, poor fit]
10 | CC(CO)Nc1nc(SCc2ccccc2)nc2sc3c(c12)CCC3 (stereo not drawn) | 22.4 µM [falling, partial curve, poor fit] | –
11 | CC(C)(C)n1nc2c(c1NC(=O)Cc1cccc3ccccc13)CS(=O)(=O)C2 | 3.98 µM [falling, full curve, poor fit] | 6.31 µM [falling, full curve, poor fit]
12 | CN(C)c1ccc(CNC(=O)CN2C(=O)c3cccnc3Oc3ccc(Cl)cc32)cc1 | 0.0282 µM [falling, partial curve] | 0.0398 µM [falling, partial curve]
13 | O=C1NN=COc2ccccc21 | 0.398 µM [rising, full curve, poor fit] | –
14 | CCn1c2ccccc2c2nnc(SCc3ccccc3)nc21 | 0.794 µM [rising, partial curve] | 15.8 µM [rising, single point]
15 | CN(C)CCN(Cc1cc2cc3c(cc2[nH]c1=O)OCCO3)C(=S)NCC1CCCO1 (stereo not drawn) | – | 0.0141 µM [rising, partial curve, poor fit]
16 | CCOC(=O)c1cccc(NC(=O)Cn2c(CC(=O)N3CCCC3)nc3ccccc32)c1 | 11.2 µM [rising, single point] | –
17 | COc1ccc(NC(=S)N(CCc2c(C)[nH]c3ccc(C)cc23)Cc2cccnc2)cc1 | 15.8 µM [rising, single point] | –
18 | COc1ccc(-c2nc3cnc(Nc4cccc(OC)c4)nc3n(C)c2=O)cc1 | 8.91 µM [falling, partial curve] | 10 µM [falling, partial curve]

Two compounds drawn at random from those above:
Row | SMILES | AC50 [1] | AC50 [2]
15 | CN(C)CCN(Cc1cc2cc3c(cc2[nH]c1=O)OCCO3)C(=S)NCC1CCCO1 (stereo not drawn) | – | 0.0141 µM [rising, partial curve, poor fit]
3 | Cc1ccc(S(=O)(=O)Oc2cccc(/C=N/n3cnnc3)c2)cc1 | 14.1 µM [rising, partial curve] | 12.6 µM [rising, partial curve]

Further entries follow:

Row | SMILES | AC50 [1] | AC50 [2]
19 | Cc1ccc(S(=O)(=O)N2CCN(C(C)C)CC2)cc1 | 0.0112 µM [rising, full curve, poor fit] | –
20 | CCc1nnc(NC(=O)CSc2nnc(CNc3ccc(F)cc3)n2C2CCCCC2)s1 | 20 µM [rising, single point] | 5.62 µM [rising, partial curve]
21 | COc1ccc(S(=O)(=O)N(Cc2ccccc2)Cc2nc(-c3ccccc3)no2)cc1 | 25.1 µM [rising, single point] | –
22 | CCNc1cc2n(c(=O)n1)CCc1cc(OC)c(OC)cc1-2 | 31.6 µM [rising, single point] | –
23 | Cc1sc(N/N=C/c2cccnc2)nc1-c1ccccc1 | 11.2 µM [falling, partial curve] | 7.08 µM [falling, partial curve, poor fit]
24 | FC(F)(F)c1cccc(NC(=S)NCC(c2cccnc2)N2CCOCC2)c1 (stereo not drawn) | 3.16 µM [rising, single point] | –
25 | COc1ccc(CNC(=O)CCCN2C(=O)c3ccccc3C2=O)cc1 | – | 0.794 µM [rising, full curve, poor fit]
26 | COc1ccc(S(=O)(=O)N2CCN(c3ccc(C)cc3C)CC2)cc1OC | 15.8 µM [rising, partial curve] | 11.2 µM [rising, single point]
27 | Oc1cccc(NC(=S)Nc2ccc(SC(F)F)cc2)c1 | 35.5 µM [rising, single point] | –
28 | Cc1c(C(=O)Nc2cccc(C(F)(F)F)c2)oc2ccc(S(=O)(=O)N3CCC4(CC3)OCCO4)cc12 | 3.16 µM [falling, single point] | –
29 | Nc1ncnc2nc(SCCc3ccccc3)[nH]c12 | – | 35.5 µM [rising, single point]
30 | O=C(CN(Cc1cccs1)S(=O)(=O)c1ccc(S(=O)(=O)NC2CCCCC2)cc1)Nc1ccccc1 | 35.5 µM [rising, single point] | –
31 | CCOC(=O)N1CCN(S(=O)(=O)c2ccc(C(=O)NNc3nc4c(C)cccc4s3)cc2)CC1 | 11.2 µM [rising, partial curve] | –
32 | CCOc1ccccc1N(C)C(=O)c1cc(S(=O)(=O)NCCc2ccc(Cl)cc2)ccc1F | 10 µM [rising, partial curve] | –
33 | COc1ccc(NS(=O)(=O)c2cc(NC(=O)c3nn(C)c(=O)c4ccccc34)ccc2OC)cc1 | 35.5 µM [rising, partial curve, poor fit] | –
34 | CCOc1ccccc1C(=O)Nc1cc(OC)ccc1OC | 35.5 µM [rising, single point] | 35.5 µM [rising, single point]
35 | COc1ccc(NC(=O)C2CCCCN2S(=O)(=O)c2ccc(F)cc2)c(OC)c1 (stereo not drawn) | 31.6 µM [rising, single point] | 35.5 µM [rising, single point]
36 | Cc1ccc(C)c2[nH]c(=O)c(CN(Cc3ccco3)C(=O)Nc3ccccc3)cc12 | 11.2 µM [rising, partial curve] | 28.2 µM [rising, single point]
